Source: patent publication US20110020312A1, “METHODS FOR TREATMENT OF METABOLIC DISORDERS USING EPIMETABOLIC SHIFTERS, MULTIDIMENSIONAL INTRACELLULAR MOLECULES, OR ENVIRONMENTAL INFLUENCERS” (priority 2009, published 2011)
For at least one compound, name, drawing or mass did not settle the structure.

Columns and labels:
[1] = tested on: Caspase-3; experiment: Western blot of building block components, Caspase-3 expression in Skmel-28 melanoma cells; assay type: cell-based; conditions: 5 μM and 15 μM, 12 hours and 24 hours
Experimental: (§1) Skmel-28 melanoma cells were cultured in DMEM/F12 supplemented with 5% Fetal Bovine Serum (FBS) and 1× final concentration of Antibiotics. The cells were grown to 85% confluency and treated with building block components for 3, 6, 12 and 24 hours. The cells were then pelleted and a Western blot analysis was performed.
(§2) The test building block components included L-Phenylylalanine, DL-Phenylyalanine, D-Phenylylalanine, L-Tyrosine, DL-Tyrosine, D-Tyrosine, 4-Hydroxy-phenylpyruvate, phenylacetate, 3-methoxy-4-hydroxymandelate (vanillylmandelate or VMA), vanillic acid, 4-hydroxy-benzoate, pyridoxine, panthenol, mevalonic acid, Acetylglycine, Acetyl-CoA, Farnesyl, and 2,3-Dimethoxy-5-methyl-p-benzoquinone.
(§3) In the Western Blot Analysis, the cells were pelleted in cold PBS, lysed, and the protein levels were quantified using a BCA protein assay. The whole cell lysate was loaded in a 4% loading 12% running Tris-HCl gel. The proteins were then transferred to a nitrocellulose paper then blocked with a 5% milk Tris-buffered solution for 1 hour. The proteins were then exposed to primary antibodies (Bcl-2 and Caspase-3) overnight. The nitrocellulose paper was then exposed to Pico Chemilluminescent for 5 min and the protein expression was recorded. After exposure, actin was quantified using the same method. Using ImageJ the levels of protein expression were quantified. […]

[2] = tested on: Bcl-2; experiment: Western blot of building block components, Bcl-2 expression in Skmel-28 melanoma cells; assay type: cell-based; conditions: 5 μM and 15 μM, 12 and 24 hours
Experimental: as §1, §2, §3

O=C(O)Cc1ccccc1 [phenylacetate]
Caspase-3 expression [1]: increase
Bcl-2 expression [2]: decrease
